From paper PMC10649274 (International Journal of Molecular Sciences, 2023)
Values joined by “and” are separate entries in the source; they are usually repeats but may differ in a detail not shown here. Equal entries are not always repeated.

How the values were obtained:
native NMDA receptors [1] = details: −80 mV; earlier papers of the authors; cited from earlier work
native NMDA receptors [2] = assay: Analysis of voltage dependence of NMDA receptor block (Woodhull model with voltage-independent component, Equation (2)); format: cell-based, rat; details: for zδ: reanalysis of the authors' earlier voltage dependence data [16],[17]
Protocol: NMDA receptors were activated with 100 µM NMDA plus 10 µM glycine unless otherwise stated. The percentages of blocking of the steady-state or peak currents by different drug concentrations were measured at −80, −30 or +30 mV holding voltages. Kinetics of transient processes of more than 20 ms duration were approximated with single or double exponential functions. In case of double exponential fitting, the weighted time constant was used.
The voltage dependence of compounds’ action was analyzed with the classical Woodhull model with the addition of a voltage-independent component. […] Kb is the affinity of a drug for the channel, and δ is the electrical depth of the binding site. The δ value reflects the fraction of membrane electric field that the charged blocking molecule crosses on its pathway between the external media and the binding site in the channel.
Thus, we deduced Equation (2), taking it into account and assuming that the binding to the deep and shallow site is independent:(2) B=100−100/(1+C/(Kvd∗exp〖Fzδ/RTV〗)+C/Kvi+(C∗C)/((Kvd∗exp〖Fzδ/RTV〗∗Kvi))
In this equation, Kvd is the affinity of the drug to the deep site, Kvi—the affinity of the drug to the shallow site, and other parameters are the same as in Equation (1).
All experimental data are presented as the mean ± SD estimated from at least four experiments (cells). Significance of the effects was tested with t-tests. Differences were considered significant at p < 0.05. Concentration dependencies were approximated with Hill equation. Voltage dependencies were approximated with Equation (2). […] Approximation error values were taken as the precision measures.

native NMDA receptors [3] = assay: Whole-cell patch clamp of NMDA plus glycine induced currents in isolated CA1 pyramidal neurons; format: cell-based, rat
Protocol: The rats were anesthetised with sevoflurane and then decapitated. The brains were brought out quickly and cooled to 2–4 °C. […] All experiments were performed at room temperature.
Vibrodissociation method was used to free CA1 pyramidal neurons from slices. This method allows for isolating cells without enzymatic treatment and keeping them in more native state. Pyramidal cells were isolated from the stratum pyramidale and distinguished from non-pyramidal cells on the basis of pyramidal-like somata and preserved apical dendrites.
To record membrane currents in response to applications of NMDA and glycine, the whole-cell configuration of patch clamp technique was used. Series resistance (<20 MΩ) was compensated by 70–80% and monitored during experiments. Only cells with stable holding currents were used in further analysis. The current signals were amplified using EPC-8 (HEKA Electronics, Lambrecht, Germany), filtered at 5 kHz, sampled, and stored on a personal computer. RSC-200 (BioLogic Science Instruments, Claix, France) perfusion system was used to apply the drugs under computer control. […] The pipettes with resistance of 2–5 MΩ were filled with the following solution (in mM): CsF 100, CsCl 40, NaCl 5, CaCl2 0.5, EGTA 5, HEPES 10 (pH adjusted to 7.2 with CsOH). […] Other reagents were purchased from MedChemExpress (Monmouth Junction, NJ, USA), Sigma (St. Louis, MO, USA), or Tocris Bioscience (Bristol, UK).
NMDA receptors were activated with 100 µM NMDA plus 10 µM glycine unless otherwise stated. […] Kinetics of transient processes of more than 20 ms duration were approximated with single or double exponential functions. In case of double exponential fitting, the weighted time constant was used.

N=C(N)c1ccc(/N=N/Nc2ccc(C(=N)N)cc2)cc1 [Diminazene]
Hill Coeff. (native NMDA receptors [1]): 2.0 ± 0.3

N=C(N)c1ccc(-c2ccc(-c3ccc(C(=N)N)cc3)o2)cc1 [Furamidine]
Hill Coeff. (native NMDA receptors [1]): 1.5 ± 0.2

N=C(N)c1ccc2cc(OC(=O)c3ccc(N=C(N)N)cc3)ccc2c1 [Nafamostat]
Hill Coeff. (native NMDA receptors [1]): 1.2 ± 0.2

N=C(N)c1ccc(OCCCCCOc2ccc(C(=N)N)cc2)cc1 [Pentamidine]
Hill Coeff. (native NMDA receptors [1]): 1.1 ± 0.2
zδ (native NMDA receptors [2]; Equation (2) fit, zδ free): 1.4 and 1.4 ± 0.1

N=C(N)c1ccc2cc(OC(=O)c3ccc(NC4=NCCN4)cc3)ccc2c1 [Sepimostat]
Hill coefficient, peak component (native NMDA receptors [3]; +30 mV, peak): 0.9 ± 0.1
Hill coefficient, steady-state component (native NMDA receptors [3]; +30 mV, steady-state): 0.9 ± 0.1
Hill coefficient, peak component (native NMDA receptors [3]; −80 mV, peak current): 1.1 ± 0.2
Hill coefficient, steady-state component (native NMDA receptors [3]; −80 mV, steady-state current): 0.9 ± 0.1
zδ, peak component (native NMDA receptors [2]; Equation (2) fit, zδ free, peak current, −120 to +30 mV): 0.7 ± 0.2
zδ, steady-state component (native NMDA receptors [2]; Equation (2) fit, zδ free, steady-state current, −120 to +30 mV): 0.6 ± 0.2 and 0.6
δ value (electrical depth of binding site) (native NMDA receptors [2]; from zδ assuming +1 charge): 0.6 ± 0.2

N=C(N)c1ccc(-c2cc3ccc(C(=N)N)cc3[nH]2)cc1 [DAPI]
Hill Coeff. (native NMDA receptors [1]): 1.2 ± 0.2
zδ (native NMDA receptors [2]; Equation (2) fit, zδ free): 0.06 ± 0.70

CCOC(=O)c1ccc(OC(=O)CCCCCNC(=N)N)cc1 [Gabexate]
Hill Coeff. (native NMDA receptors [1]): 0.8 ± 0.2
zδ (native NMDA receptors [2]; Equation (2) fit, zδ free): 0.4 ± 0.2
